Among the data in the supplement of paper PMC6411743 are NP40-soluble protein abundance values, retold here.

The chains behind the UniProt entries cited, without tags or fusion partners. Where a name states a change or a piece, a line headed by the entry shows the natural chain unless it says otherwise.
UniProt P61129: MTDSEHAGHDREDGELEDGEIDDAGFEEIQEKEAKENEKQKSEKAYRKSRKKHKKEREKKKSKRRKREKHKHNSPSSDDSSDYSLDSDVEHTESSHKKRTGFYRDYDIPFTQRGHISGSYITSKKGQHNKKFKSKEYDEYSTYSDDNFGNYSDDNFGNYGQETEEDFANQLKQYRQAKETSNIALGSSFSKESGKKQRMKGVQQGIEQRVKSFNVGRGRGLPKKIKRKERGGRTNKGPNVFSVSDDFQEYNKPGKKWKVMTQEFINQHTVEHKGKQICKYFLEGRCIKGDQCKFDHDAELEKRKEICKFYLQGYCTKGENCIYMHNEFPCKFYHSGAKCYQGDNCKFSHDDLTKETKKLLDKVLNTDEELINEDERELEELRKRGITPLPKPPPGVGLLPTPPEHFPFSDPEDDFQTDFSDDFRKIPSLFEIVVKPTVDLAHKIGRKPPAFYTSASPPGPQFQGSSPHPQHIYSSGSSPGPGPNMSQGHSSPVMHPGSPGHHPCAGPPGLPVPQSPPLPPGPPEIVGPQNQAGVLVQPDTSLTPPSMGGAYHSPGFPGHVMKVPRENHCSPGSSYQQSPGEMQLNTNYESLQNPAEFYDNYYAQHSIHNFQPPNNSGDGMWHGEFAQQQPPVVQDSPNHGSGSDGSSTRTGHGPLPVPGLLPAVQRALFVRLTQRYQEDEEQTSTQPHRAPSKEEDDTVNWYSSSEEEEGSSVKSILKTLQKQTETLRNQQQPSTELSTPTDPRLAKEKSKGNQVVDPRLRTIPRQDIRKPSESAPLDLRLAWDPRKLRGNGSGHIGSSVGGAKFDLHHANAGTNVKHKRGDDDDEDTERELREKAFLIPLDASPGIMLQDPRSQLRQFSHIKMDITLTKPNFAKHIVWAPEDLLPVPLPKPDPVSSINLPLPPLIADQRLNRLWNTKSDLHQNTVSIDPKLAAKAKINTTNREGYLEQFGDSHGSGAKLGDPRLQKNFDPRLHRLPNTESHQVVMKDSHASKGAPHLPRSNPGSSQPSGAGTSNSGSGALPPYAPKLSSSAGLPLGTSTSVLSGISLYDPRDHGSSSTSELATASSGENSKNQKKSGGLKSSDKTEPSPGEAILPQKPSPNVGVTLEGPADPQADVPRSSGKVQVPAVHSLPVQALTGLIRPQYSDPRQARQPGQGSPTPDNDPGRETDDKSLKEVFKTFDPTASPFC
UniProt P53634: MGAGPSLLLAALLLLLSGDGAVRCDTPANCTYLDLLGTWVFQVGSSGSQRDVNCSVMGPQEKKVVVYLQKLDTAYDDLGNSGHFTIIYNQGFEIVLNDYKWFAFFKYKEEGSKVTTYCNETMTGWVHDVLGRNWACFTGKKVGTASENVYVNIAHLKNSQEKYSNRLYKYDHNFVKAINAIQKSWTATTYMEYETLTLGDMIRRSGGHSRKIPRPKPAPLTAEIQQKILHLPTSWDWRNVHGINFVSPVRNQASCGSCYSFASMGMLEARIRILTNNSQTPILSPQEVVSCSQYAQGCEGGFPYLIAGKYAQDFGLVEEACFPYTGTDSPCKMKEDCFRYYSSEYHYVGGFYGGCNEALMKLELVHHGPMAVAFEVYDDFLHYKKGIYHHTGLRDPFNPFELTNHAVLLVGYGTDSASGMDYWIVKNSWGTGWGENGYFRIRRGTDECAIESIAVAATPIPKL
UniProt P56381: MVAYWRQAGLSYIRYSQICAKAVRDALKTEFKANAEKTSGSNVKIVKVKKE
UniProt P55010, whole entry: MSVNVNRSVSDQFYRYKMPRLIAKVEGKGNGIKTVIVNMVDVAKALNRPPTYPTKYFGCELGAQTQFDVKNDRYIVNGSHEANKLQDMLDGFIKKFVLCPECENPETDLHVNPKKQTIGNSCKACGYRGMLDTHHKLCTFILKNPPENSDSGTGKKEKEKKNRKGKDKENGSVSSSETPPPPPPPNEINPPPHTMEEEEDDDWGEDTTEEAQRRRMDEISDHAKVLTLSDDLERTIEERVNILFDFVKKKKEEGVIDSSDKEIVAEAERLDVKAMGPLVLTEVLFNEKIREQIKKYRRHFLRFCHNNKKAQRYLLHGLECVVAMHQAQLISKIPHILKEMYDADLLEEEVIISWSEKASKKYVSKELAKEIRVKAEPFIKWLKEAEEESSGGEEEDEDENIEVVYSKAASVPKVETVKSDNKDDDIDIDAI
UniProt P67775, whole entry: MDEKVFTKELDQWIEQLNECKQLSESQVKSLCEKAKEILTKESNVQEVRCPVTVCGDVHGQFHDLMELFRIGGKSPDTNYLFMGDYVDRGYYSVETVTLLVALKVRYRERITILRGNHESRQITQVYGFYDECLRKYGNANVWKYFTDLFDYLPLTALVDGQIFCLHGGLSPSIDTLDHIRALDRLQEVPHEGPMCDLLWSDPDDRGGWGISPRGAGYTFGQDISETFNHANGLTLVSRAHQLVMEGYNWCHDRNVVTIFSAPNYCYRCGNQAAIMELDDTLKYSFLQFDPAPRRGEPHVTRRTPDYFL
UniProt P50995, whole entry: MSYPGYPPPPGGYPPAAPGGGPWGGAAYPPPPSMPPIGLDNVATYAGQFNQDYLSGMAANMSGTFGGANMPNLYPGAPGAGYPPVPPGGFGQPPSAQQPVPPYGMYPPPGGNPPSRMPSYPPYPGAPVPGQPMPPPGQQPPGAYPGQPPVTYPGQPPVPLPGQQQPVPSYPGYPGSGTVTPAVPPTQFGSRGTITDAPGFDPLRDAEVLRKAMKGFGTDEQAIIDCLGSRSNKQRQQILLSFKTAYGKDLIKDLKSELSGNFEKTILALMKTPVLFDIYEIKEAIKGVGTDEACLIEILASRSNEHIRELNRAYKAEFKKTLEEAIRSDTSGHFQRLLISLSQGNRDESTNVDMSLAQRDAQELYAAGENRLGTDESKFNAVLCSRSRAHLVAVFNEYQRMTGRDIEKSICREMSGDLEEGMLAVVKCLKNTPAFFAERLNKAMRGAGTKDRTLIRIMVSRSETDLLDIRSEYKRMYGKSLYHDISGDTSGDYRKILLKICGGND
UniProt P54920: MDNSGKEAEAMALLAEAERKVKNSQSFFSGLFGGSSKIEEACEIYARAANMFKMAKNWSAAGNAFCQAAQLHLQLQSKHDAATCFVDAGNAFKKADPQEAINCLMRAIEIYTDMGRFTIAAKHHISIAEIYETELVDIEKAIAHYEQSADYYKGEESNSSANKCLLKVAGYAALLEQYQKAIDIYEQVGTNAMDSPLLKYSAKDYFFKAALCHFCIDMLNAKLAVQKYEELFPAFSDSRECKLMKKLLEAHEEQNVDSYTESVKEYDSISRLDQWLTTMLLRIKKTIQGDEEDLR
UniProt P56192: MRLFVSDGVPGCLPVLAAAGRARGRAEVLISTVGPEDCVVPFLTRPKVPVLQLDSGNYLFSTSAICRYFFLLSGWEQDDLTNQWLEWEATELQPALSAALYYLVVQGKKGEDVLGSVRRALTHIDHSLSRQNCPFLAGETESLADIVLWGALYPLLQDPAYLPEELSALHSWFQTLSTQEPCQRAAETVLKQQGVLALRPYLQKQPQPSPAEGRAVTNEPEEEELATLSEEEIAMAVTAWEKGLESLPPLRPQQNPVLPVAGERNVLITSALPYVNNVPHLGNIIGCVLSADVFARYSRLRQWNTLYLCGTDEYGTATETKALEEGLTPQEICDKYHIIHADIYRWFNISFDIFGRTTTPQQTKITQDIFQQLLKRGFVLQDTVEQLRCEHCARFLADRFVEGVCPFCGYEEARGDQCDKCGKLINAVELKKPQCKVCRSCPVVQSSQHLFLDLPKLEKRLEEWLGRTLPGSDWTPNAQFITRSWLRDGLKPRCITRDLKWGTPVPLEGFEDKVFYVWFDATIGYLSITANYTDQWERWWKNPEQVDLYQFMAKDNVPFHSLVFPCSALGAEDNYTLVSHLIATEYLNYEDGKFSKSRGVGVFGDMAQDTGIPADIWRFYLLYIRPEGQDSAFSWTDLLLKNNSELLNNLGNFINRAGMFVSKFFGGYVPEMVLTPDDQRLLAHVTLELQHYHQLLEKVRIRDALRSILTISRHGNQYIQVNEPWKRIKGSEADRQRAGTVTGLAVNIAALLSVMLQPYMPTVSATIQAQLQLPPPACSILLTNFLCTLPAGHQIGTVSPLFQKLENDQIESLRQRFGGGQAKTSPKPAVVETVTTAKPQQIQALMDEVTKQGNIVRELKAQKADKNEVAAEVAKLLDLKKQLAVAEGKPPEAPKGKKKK
UniProt P84095: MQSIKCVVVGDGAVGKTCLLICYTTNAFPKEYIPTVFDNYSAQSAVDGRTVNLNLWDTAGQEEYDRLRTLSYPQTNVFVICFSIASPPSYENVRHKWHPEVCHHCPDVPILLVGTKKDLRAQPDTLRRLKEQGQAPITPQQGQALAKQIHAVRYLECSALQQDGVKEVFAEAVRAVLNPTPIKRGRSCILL
UniProt P52298: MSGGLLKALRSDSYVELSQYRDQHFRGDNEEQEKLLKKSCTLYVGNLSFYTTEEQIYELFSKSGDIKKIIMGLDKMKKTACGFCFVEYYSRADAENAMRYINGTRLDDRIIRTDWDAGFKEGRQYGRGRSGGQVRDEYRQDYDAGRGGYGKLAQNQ
UniProt P61457: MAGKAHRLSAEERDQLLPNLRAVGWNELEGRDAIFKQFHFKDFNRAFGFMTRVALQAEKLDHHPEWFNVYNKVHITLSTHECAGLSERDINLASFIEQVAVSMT
UniProt P56199, whole entry: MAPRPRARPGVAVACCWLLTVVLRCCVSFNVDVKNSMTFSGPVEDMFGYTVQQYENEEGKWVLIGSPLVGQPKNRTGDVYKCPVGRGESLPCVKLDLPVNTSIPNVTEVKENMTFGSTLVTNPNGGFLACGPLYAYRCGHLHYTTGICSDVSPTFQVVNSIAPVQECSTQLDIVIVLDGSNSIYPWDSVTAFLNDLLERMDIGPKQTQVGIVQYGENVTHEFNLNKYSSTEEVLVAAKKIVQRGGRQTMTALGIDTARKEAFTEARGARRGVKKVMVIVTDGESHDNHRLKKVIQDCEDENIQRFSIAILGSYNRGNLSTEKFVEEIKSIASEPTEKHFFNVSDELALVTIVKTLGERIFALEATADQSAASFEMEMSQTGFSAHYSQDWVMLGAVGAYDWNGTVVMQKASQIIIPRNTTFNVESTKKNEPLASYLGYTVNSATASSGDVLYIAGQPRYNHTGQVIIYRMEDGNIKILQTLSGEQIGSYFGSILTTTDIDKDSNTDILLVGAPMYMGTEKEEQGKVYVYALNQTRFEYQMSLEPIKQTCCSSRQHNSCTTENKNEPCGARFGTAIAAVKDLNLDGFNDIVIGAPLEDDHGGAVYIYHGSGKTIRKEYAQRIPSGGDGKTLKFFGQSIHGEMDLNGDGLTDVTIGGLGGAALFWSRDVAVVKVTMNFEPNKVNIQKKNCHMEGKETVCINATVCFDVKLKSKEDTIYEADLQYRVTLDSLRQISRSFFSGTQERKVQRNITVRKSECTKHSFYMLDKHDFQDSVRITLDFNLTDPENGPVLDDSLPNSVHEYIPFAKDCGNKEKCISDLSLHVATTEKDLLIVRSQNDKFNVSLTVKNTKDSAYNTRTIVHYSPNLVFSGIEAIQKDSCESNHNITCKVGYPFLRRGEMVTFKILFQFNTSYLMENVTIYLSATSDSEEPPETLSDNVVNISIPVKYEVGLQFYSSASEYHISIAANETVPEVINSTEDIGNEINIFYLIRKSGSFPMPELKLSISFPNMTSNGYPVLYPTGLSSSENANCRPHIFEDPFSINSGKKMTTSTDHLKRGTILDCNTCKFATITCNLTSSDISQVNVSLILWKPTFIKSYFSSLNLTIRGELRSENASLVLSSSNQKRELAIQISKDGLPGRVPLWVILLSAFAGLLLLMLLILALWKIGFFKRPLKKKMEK
UniProt P54687: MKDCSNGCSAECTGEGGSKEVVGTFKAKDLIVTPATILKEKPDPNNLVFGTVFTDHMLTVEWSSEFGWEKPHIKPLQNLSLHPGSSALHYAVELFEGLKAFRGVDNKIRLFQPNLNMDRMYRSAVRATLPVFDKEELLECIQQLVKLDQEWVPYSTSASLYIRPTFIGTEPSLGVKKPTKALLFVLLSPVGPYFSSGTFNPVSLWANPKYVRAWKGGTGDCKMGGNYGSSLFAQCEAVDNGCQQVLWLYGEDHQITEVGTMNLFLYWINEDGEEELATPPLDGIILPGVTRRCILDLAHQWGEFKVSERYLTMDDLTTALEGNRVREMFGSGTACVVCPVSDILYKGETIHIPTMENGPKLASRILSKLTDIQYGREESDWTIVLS
UniProt P51572: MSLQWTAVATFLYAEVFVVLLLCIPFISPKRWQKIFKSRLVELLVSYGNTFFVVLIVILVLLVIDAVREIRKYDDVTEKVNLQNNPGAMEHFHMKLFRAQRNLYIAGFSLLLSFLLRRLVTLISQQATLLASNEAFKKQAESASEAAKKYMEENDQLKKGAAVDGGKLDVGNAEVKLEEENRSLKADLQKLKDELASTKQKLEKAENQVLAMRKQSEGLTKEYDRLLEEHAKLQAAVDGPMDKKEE
UniProt P62072: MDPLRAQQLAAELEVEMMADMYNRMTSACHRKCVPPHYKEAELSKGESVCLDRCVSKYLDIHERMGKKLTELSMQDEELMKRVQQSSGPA

± gives the standard deviation of the averaged measurements. Some of the results follow.

Compound in one test: Nc1nc2c(ncn2[C@@H]2O[C@H](COP(=O)(O)OP(=O)(O)OP(=O)(O)O)[C@@H](O)[C@H]2O)c(=O)[nH]1 [guanosine triphosphate]
Briefly: NP40-soluble protein abundance relative to vehicle (solubility fold change) (ratio); higher = more soluble protein in presence of GTP. The note with it: concentration: 4mM. Put shortly:
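Across three independent experiments, values are fold changes against the detergent-processed vehicle for each replicate, based on vsn-normalised intensities. The samples were Jurkat crude lysate treated with eight concentrations (0.1 to 10 mM) for 10 min at room temperature and then 3 min at 37 °C. Lysate was solubilised with 0.8% NP40 and benzonase, ultracentrifuged, and the supernatant analysed by TMT-labelled LC-MS/MS.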
On to UniProt P61129, for which the NP40-soluble protein abundance was determined as 0.915 ± 0.12.
The same measure, in the same setting: under CTSC (UniProt P53634) stands 1.02 ± 0.034.
Regarding UniProt P56381, the NP40-soluble protein abundance was found to be 1.07 ± 0.16.
As for UniProt P61764 and related entries, the NP40-soluble protein abundance was determined as 0.939 ± 0.076.
Regarding UniProt P60604, the NP40-soluble protein abundance worked out at 1.1 ± 0.03.
For the target EIF5 (UniProt P55010), the NP40-soluble protein abundance was found to be 0.898 ± 0.069.
On the same count and under the same terms, under MRPS9 (UniProt P82933) stands 1.37 ± 0.37; under PPP2CA (UniProt P67775), 0.951 ± 0.026; under MRPS35 (UniProt P82673), 1.29 ± 0.35.
The same measure, in the same setting: under UniProt P50995 and related entries stands 0.914 ± 0.098; under UniProt P54920 and related entries, 0.962 ± 0.029; under UniProt P61009, 0.9 ± 0.052.
Still for that read-out and setting: next, UniProt P60953: 0.79 ± 0.13; UniProt P62495: 0.842 ± 0.048; “UniProt P63092-2|P63092-3|P63092 and related entries”: 0.882 ± 0.043.
On to FOXK1 (UniProt P85037), for which the NP40-soluble protein abundance is 1.04 ± 0.023.
Same read-out and setting: under MARS (UniProt P56192) stands 1.24 ± 0.21; under XIAP (UniProt P98170), 1.07 ± 0.18; under UniProt P62995 and related entries, 1.61 ± 0.64.
UniProt P55884 and related entries: the NP40-soluble protein abundance was determined as 1.29 ± 0.26.
On the same count and under the same terms, under UniProt P84095 stands 0.851 ± 0.081; under NCBP2 (UniProt P52298), 1.05 ± 0.077.
On the same count and under the same terms, next, UniProt P54727 and related entries: 0.889 ± 0.059; UniProt P60983 and related entries: 1.02 ± 0.091; PCBD1 (UniProt P61457): 1.01 ± 0.021.
Same read-out and setting: under UniProt P62314 stands 1.23 ± 0.17; under ITGA1 (UniProt P56199), 1.03 ± 0.19; under UniProt P51532 and related entries, 1.19 ± 0.15.
With UniProt P54687 and related entries, the NP40-soluble protein abundance is 0.925 ± 0.08.
On the same count and under the same terms, next, UniProt P51948 and related entries: 1.03 ± 0.024.
UniProt P62318 and related entries: the NP40-soluble protein abundance stood at 1.44 ± 0.26.
Still for that read-out and setting: next, UniProt P51572 and related entries: 1.02 ± 0.087; UniProt P61221: 0.948 ± 0.063; UniProt P62072: 1.01 ± 0.071.
On the same count and under the same terms, under ST13 (UniProt P50502) stands 0.869 ± 0.07; under COG7 (UniProt P83436), 1.03 ± 0.068; under GSTO1 (UniProt P78417), 0.846 ± 0.033.
On the same count and under the same terms, under UniProt P60174 and related entries stands 0.817 ± 0.12.

Staying with this test, now noted: concentration: 6mM.
With UniProt P61129, the NP40-soluble protein abundance is 0.959 ± 0.13.
CTSC (UniProt P53634): the NP40-soluble protein abundance was 0.981 ± 0.034.
On the same count and under the same terms, under UniProt P56381 stands 1.11 ± 0.14.
On the same count and under the same terms, next, UniProt P61764 and related entries: 0.917 ± 0.057.
Still for that read-out and setting: next, UniProt P60604: 1.04 ± 0.012; EIF5 (UniProt P55010): 0.921 ± 0.085.
As for MRPS9 (UniProt P82933), the NP40-soluble protein abundance was 1.3 ± 0.33.
Still for that read-out and setting: under PPP2CA (UniProt P67775) stands 0.951 ± 0.031; under MRPS35 (UniProt P82673), 1.26 ± 0.35; under UniProt P50995 and related entries, 0.893 ± 0.1.
On the same count and under the same terms, under UniProt P54920 and related entries stands 0.943 ± 0.021; under UniProt P61009, 0.885 ± 0.067.
Take UniProt P60953: the NP40-soluble protein abundance was found to be 0.813 ± 0.11.
The same measure, in the same setting: under UniProt P62495 stands 0.893 ± 0.054; under “UniProt P63092-2|P63092-3|P63092 and related entries”, 0.882 ± 0.038; under FOXK1 (UniProt P85037), 1.03 ± 0.054.
Turning to MARS (UniProt P56192), the NP40-soluble protein abundance was determined as 1.21 ± 0.24.
The same measure, in the same setting: next, XIAP (UniProt P98170): 1.04 ± 0.14; UniProt P62995 and related entries: 1.54 ± 0.58.
Same read-out and setting: next, UniProt P55884 and related entries: 1.46 ± 0.33; UniProt P84095: 0.888 ± 0.077; NCBP2 (UniProt P52298): 1.08 ± 0.085.
Still for that read-out and setting: under UniProt P54727 and related entries stands 0.868 ± 0.037; under UniProt P60983 and related entries, 0.986 ± 0.099; under PCBD1 (UniProt P61457), 0.9294 ± 0.009.
With UniProt P62314, the NP40-soluble protein abundance stood at 1.32 ± 0.24.
The same measure, in the same setting: next, ITGA1 (UniProt P56199): 1.02 ± 0.14; UniProt P51532 and related entries: 1.2 ± 0.17; UniProt P54687 and related entries: 0.896 ± 0.059.
Same read-out and setting: under UniProt P51948 and related entries stands 1.07 ± 0.065; under UniProt P62318 and related entries, 1.33 ± 0.057; under UniProt P51572 and related entries, 1.11 ± 0.078.
On the same count and under the same terms, next, UniProt P61221: 0.961 ± 0.058; UniProt P62072: 1.04 ± 0.16.
ST13 (UniProt P50502): the NP40-soluble protein abundance was determined as 0.804 ± 0.22.
On to COG7 (UniProt P83436), for which the NP40-soluble protein abundance amounted to 1.01 ± 0.06.
Still for that read-out and setting: next, GSTO1 (UniProt P78417): 0.853 ± 0.046; UniProt P60174 and related entries: 0.842 ± 0.11.

The test is the same for the next values; noted with them: concentration: 8mM.
UniProt P61129: the NP40-soluble protein abundance was 0.954 ± 0.063.
Same read-out and setting: under CTSC (UniProt P53634) stands 0.972 ± 0.017.
Still for that read-out and setting: under UniProt P56381 stands 1.13 ± 0.15; under UniProt P61764 and related entries, 0.938 ± 0.043; under UniProt P60604, 1.15 ± 0.065.
On to EIF5 (UniProt P55010), for which the NP40-soluble protein abundance worked out at 0.94 ± 0.064.
On the same count and under the same terms, under MRPS9 (UniProt P82933) stands 1.32 ± 0.36; under PPP2CA (UniProt P67775), 0.9571 ± 0.0073; under MRPS35 (UniProt P82673), 1.19 ± 0.35.
For the target UniProt P50995 and related entries, the NP40-soluble protein abundance amounted to 0.89 ± 0.087.
The same measure, in the same setting: under UniProt P54920 and related entries stands 0.881 ± 0.1.
The same measure, in the same setting: next, UniProt P61009: 0.844 ± 0.036.
On the same count and under the same terms, under UniProt P60953 stands 0.812 ± 0.1; under UniProt P62495, 0.832 ± 0.025; under “UniProt P63092-2|P63092-3|P63092 and related entries”, 0.873 ± 0.026.
For the target FOXK1 (UniProt P85037), the NP40-soluble protein abundance was determined as 1.09 ± 0.091.
The same measure, in the same setting: under MARS (UniProt P56192) stands 1.24 ± 0.22; under XIAP (UniProt P98170), 0.982 ± 0.1; under UniProt P62995 and related entries, 1.54 ± 0.62.
Same read-out and setting: under UniProt P55884 and related entries stands 1.55 ± 0.34.
Same read-out and setting: next, UniProt P84095: 0.865 ± 0.069.
Consider NCBP2 (UniProt P52298), for which the NP40-soluble protein abundance is 1.08 ± 0.091.
Same read-out and setting: next, UniProt P54727 and related entries: 0.842 ± 0.087; UniProt P60983 and related entries: 0.976 ± 0.14; PCBD1 (UniProt P61457): 0.968 ± 0.017.
The same measure, in the same setting: under UniProt P62314 stands 1.23 ± 0.14; under ITGA1 (UniProt P56199), 0.943 ± 0.19.
On the same count and under the same terms, under UniProt P51532 and related entries stands 1.24 ± 0.23; under UniProt P54687 and related entries, 0.891 ± 0.029.
For UniProt P51948 and related entries, the NP40-soluble protein abundance was 1.01 ± 0.022.
Same read-out and setting: next, UniProt P62318 and related entries: 1.55 ± 0.3; UniProt P51572 and related entries: 1.09 ± 0.042; UniProt P61221: 0.912 ± 0.035.
Same read-out and setting: next, UniProt P62072: 1.09 ± 0.076; ST13 (UniProt P50502): 0.817 ± 0.14.
The same measure, in the same setting: under COG7 (UniProt P83436) stands 1.02 ± 0.058; under GSTO1 (UniProt P78417), 0.802 ± 0.078; under UniProt P60174 and related entries, 0.813 ± 0.096.
